Positions count from the first letter of the chain named. No constants are given. Whether binding was seen depends on the method and setting. Binding seen in cells or lysates may run through a third protein. Some binding calls cover weakened binding; strength is not graded here. For part of these data: Sequences can lack the tags named with a protein.
Experiments:
[1] = molecular target: T1, Vangl1, endogenous mouse (mouse (endogenous in IMCD3)) (UniProt Q80Z96); assay: co-IP; serial IP of endogenous proteins from IMCD3 cell extracts: two successive rounds of IP with N-VGL2 pAb, then IP of the Vangl2-Long depleted lysate with a Vangl1-specific antibody
T1 sequence: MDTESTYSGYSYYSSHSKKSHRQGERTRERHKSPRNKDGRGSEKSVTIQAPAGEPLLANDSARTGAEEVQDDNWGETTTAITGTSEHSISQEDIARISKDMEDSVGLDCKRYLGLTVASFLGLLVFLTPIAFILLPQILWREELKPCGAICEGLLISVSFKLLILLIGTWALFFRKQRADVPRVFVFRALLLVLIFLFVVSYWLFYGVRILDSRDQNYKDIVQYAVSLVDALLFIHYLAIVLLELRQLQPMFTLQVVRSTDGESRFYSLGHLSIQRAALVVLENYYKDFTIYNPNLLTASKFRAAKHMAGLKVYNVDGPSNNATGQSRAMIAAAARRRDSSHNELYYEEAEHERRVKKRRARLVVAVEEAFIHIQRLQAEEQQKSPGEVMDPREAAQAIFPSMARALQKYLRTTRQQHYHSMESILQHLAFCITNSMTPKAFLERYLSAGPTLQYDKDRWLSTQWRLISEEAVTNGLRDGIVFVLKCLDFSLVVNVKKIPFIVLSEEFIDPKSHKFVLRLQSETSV

[2] = molecular target: T2, VANGL2 expressed from pVANGL2 (human) (UniProt Q9ULK5); assay: co-IP; HEK 293T cells transfected with GFP-VANGL1 and pVANGL2 or pVANGL2-Long; IP with mAb 36E3 or N-VGL2 pAb; blots with a GFP-specific antibody and mAb 36E3
T2 sequence: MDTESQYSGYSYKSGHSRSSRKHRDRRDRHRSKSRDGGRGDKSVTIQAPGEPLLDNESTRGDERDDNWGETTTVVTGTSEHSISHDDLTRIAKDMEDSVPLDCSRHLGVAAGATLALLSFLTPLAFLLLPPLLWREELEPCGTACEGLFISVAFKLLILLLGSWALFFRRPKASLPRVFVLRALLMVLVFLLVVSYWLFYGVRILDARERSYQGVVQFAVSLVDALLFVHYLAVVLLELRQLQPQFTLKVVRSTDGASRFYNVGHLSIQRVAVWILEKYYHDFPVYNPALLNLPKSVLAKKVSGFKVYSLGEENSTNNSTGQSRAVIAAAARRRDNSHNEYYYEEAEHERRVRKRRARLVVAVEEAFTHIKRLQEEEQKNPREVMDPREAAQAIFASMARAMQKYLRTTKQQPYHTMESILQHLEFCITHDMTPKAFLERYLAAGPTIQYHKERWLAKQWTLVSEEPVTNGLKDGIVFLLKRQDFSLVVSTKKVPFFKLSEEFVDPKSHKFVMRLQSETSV

[3] = molecular target: T3, VANGL2 (canonical 62 kD isoform, 521 aa), endogenous human (human (endogenous in SKBR7 and HEK 293T)) (UniProt Q9ULK5); assay: co-IP; endogenous proteins; SKBR7 or IMCD3 cell lysates (50 mM Hepes-NaOH pH 8, 150 mM NaCl, 10% glycerol, 2 mM EDTA, 0.5% NP-40) incubated overnight at 4 °C with N-VGL2 pAb (VANGL2-Long specific) or mAb 36E3, protein A or G beads; blots with mAb 36E3 and mAb 19D5; 62 kD and 70 kD bands quantified for the ratio
T3 sequence: T2 sequence

B1: Vangl2 (canonical 62 kD isoform), endogenous mouse (protein, UniProt Q91ZD4 1-521)
chain: T2 sequence with G38S, T114I, V194I
binding [1]: binds

B2: GFP-VANGL1 (protein, UniProt Q8TAA9 1-524)
chain: MDTESTYSGYSYYSSHSKKSHRQGERTRERHKSPRNKDGRGSEKSVTIQPPTGEPLLGNDSTRTEEVQDDNWGETTTAITGTSEHSISQEDIARISKDMEDSVGLDCKRYLGLTVASFLGLLVFLTPIAFILLPPILWRDELEPCGTICEGLFISMAFKLLILLIGTWALFFRKRRADMPRVFVFRALLLVLIFLFVVSYWLFYGVRILDSRDRNYQGIVQYAVSLVDALLFIHYLAIVLLELRQLQPMFTLQVVRSTDGESRFYSLGHLSIQRAALVVLENYYKDFTIYNPNLLTASKFRAAKHMAGLKVYNVDGPSNNATGQSRAMIAAAARRRDSSHNELYYEEAEHERRVKKRKARLVVAVEEAFIHIQRLQAEEQQKAPGEVMDPREAAQAIFPSMARALQKYLRITRQQNYHSMESILQHLAFCITNGMTPKAFLERYLSAGPTLQYDKDRWLSTQWRLVSDEAVTNGLRDGIVFVLKCLDFSLVVNVKKIPFIILSEEFIDPKSHKFVLRLQSETSV
binding [2]: binds

B3: VANGL1, endogenous human (protein, UniProt Q8TAA9 1-524)
chain: B2 chain
binding [3]: binds

Source: paper PMC11065751
